Results reported in PMC4482643.
These are yes or no findings as the source states them, for the method shown. In cells and extracts the contact can be indirect. Some results given as binding are weak or reduced against the parent protein; the word gives no strength. Where a sequence is shown, tags or fusion partners need not be part of it. Each block holds one binder with its values, some of them ahead of it.

What was measured:
Flag-TRIM30α (mouse) = target: T1, Flag-TRIM30α (mouse) (UniProt P15533); experiment: co-IP; HEK293T co-transfected with Flag-TRIM30α and HA-tagged plasmids; lysates 24 h after transfection; IP with anti-Flag Ab and Protein A/G Plus-Agarose overnight at 4°C, blot with anti-HA Ab
T1 sequence: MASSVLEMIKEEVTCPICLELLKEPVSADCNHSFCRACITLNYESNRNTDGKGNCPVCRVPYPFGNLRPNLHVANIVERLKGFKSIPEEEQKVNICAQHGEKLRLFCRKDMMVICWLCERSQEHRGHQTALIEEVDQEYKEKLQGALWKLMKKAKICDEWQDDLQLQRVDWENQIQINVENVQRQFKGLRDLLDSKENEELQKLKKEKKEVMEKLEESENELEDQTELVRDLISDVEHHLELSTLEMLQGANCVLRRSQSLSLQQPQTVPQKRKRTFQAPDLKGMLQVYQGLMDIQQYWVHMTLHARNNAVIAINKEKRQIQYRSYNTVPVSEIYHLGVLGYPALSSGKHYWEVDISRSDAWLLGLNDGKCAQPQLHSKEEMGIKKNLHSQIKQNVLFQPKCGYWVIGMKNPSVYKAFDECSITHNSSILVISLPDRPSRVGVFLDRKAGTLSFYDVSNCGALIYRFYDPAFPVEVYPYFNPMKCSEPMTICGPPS

[1] = target: T2, HA-tagged STING (in vitro translated) (mouse) (UniProt Q3TBT3); experiment: co-IP; HA-tagged STING and Myc-tagged TRIM30α translated in vitro and mixed; IP with anti-HA, blot with anti-Myc
T2 sequence: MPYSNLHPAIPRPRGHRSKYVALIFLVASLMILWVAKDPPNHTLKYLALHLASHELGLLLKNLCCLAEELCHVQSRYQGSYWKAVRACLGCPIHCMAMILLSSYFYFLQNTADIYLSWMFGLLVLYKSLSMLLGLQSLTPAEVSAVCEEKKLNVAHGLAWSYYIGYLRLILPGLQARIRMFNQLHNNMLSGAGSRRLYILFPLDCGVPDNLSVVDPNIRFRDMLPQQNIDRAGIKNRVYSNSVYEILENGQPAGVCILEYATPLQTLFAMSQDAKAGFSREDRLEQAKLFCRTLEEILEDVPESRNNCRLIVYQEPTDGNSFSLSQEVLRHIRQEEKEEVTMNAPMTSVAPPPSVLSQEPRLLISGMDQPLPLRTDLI

- binding (Flag-TRIM30α (mouse)): binds
B1: HA-TAK1 (protein, UniProt Q62073 1-579)
chain: MSTASAASSSSSSSASEMIEAPSQVLNFEEIDYKEIEVEEVVGRGAFGVVCKAKWRAKDVAIKQIESESERKAFIVELRQLSRVNHPNIVKLYGACLNPVCLVMEYAEGGSLYNVLHGAEPLPYYTAAHAMSWCLQCSQGVAYLHSMQPKALIHRDLKPPNLLLVAGGTVLKICDFGTACDIQTHMTNNKGSAAWMAPEVFEGSNYSEKCDVFSWGIILWEVITRRKPFDEIGGPAFRIMWAVHNGTRPPLIKNLPKPIESLMTRCWSKDPSQRPSMEEIVKIMTHLMRYFPGADEPLQYPCQYSDEGQSNSATSTGSFMDIASTNTSNKSDTNMEQVPATNDTIKRLESKLLKNQAKQQSESGRLSLGASRGSSVESLPPTSEGKRMSADMSEIEARIVATAGNGQPRRRSIQDLTVTGTEPGQVSSRSSSPSVRMITTSGPTSEKPARSHPWTPDDSTDTNGSDNSIPMAYLTLDHQLQPLAPCPNSKESMAVFEQHCKMAQEYMKVQTEIALLLQRKQELVAELDQDEKDQQNTSRLVQEHKKLLDENKSLSTYYQQCKKQLEVIRSQQQKRQGTS

- binding [1]: binds
B2: Myc-tagged TRIM30α (in vitro translated) (protein, UniProt P15533 1-496)
chain: T1 sequence
